Not every detail of the peptide structures is certain; ends, links or a residue may be inferred. Square brackets hold non-standard residues; d marks the D form. Peptide text beside a SMILES is read from it.
Experiments:
[1] = test system: EphB1, EphB2, EphB3, EphB4, EphB6 ectodomain-Fc; assay: ELISA binding assay to EphB class receptors; conditions: biotinylated peptide immobilized, EphB-Fc 2.5 μg/mL
RF24 endothelial cells = assay: Endothelial cell migration (scratch) assay; type: cell-based; conditions: 50 μM
A2780cp20-Luc tumors = assay: Orthotopic A2780cp20-Luc ovarian cancer model; type: in vivo, mouse; conditions: excised tumors
From the text: Female nude mice were intraperitoneally (i.p.) inoculated with […] tumor cells. […] Tumor growth was monitored by bioluminescence imaging (IVIS). […] CTL, untreated control.
Orthotopic ovarian cancer models. […] For all therapeutic experiments, groups of the mice (n=8-10) were inoculated intraperitoneally with A2780cp20-Luc cells. […] Untreated mice were used as a control.
Immunoblotting, immunoprecipitation, and co-immunoprecipitation. For immunoblotting, lysates from cultured cells were prepared using modified radioimmunoprecipitation assay (RIPA) buffer (50 mM Tris-HCl [pH 7.4], 150 mM NaCl, 1% Triton, 0.5% deoxycholate) plus 25 μg/mL leupeptin, 10 μg/mL aprotinin, 2 mM EDTA, and 1 mM sodium orthovanadate. To prepare lysates of snap-frozen tissue from mice, approximately 30-mm^3 cuts of tissue were disrupted with a tissue homogenizer and subjected to centrifugation at 13,000 rpm for 30 min in modified RIPA buffer. The protein concentrations were determined by using a BCA Protein Assay Reagent kit (Pierce Biotechnology, Rockford, IL). Lysates were loaded and separated by 8% sodium dodecyl sulfate (SDS)-polyacrylamide gel electrophoresis (PAGE). Proteins were transferred to a nitrocellulose membrane by semidry electrophoresis (Bio-Rad Laboratories, Hercules, CA) overnight, blocked with 3% BSA for 1 h, and then incubated at 4° C. with primary antibody overnight. […]

MDA-HGSC-1 PDX tumor = type: in vivo, mouse; conditions: p<0.001
From the text: PDX model of high grade serous ovarian carcinoma (HGSC). Under Institutional Review Board (IRB protocol PA15-0441) and IACUC approval at University of Texas, MD Anderson Cancer Center, patients with high-serous ovarian carcinoma that were being treated by at the MD Anderson Cancer Center were consented for this study. Subcutaneous HGSC-PDX model was established in 4-6 week old female Balb C athymic nude mice (Harlan Laboratories, Indianapolis, Ind.) by implanting one PDX 3×3×3 mm tumor cube (MDA-HGSOC-1 high-grade serous ovarian cancer; generation 9) at the dorsal portion of each mouse. Tumor size was monitored by caliber, and tumor volume was calculated using the formula V(cm^3)=(length×width^2)/2. Mice were randomly assigned to the PBS vehicle control or BIDEN-AP treatment group, 6 mice per group, once tumor size reached ˜100 mm^3 (21 days after implantation). PBS or BIDEN-AP was injected intraperitoneally at […] ([…]), once every other day for a total of 14 doses. At the end of the study (day 49), all mice were euthanized, and tumors were collected, weighted, and snap-frozen in optimal cutting temperature compound with liquid nitrogen, and cryosectioned into 5-μm sections for IHC staining of CD31 and Ki67 markers. […] Cell nuclei were counterstained with DAPI.

4T1 cells = assay: 4T1 i.v. lung metastasis model; type: in vivo, mouse; conditions: 4T1 cells i.v., Balb/c mice
From the text: FIGS. 25A-B: Anti-metastatic activity of BIDEN-AP. (FIG. 25A) Representative photographs of lungs from different treatment groups. The normal lung tissue was stained by blue ink. (FIG. 25B) Counts of surface metastatic nodules in the lung by visual inspection. Data are expressed as mean±SD. **p<0.01 (n=10).
BIDEN-AP was given at the same dose and the same schedule as in FIG. 24A. […] Thus, BIDEN-AP is highly anti-metastatic.

CC[C@H](C)[C@H](NC(=O)[C@@H]1CCCN1C(=O)CNC(=O)[C@H](CC(N)=O)NC(=O)[C@@H]1CCCN1C(=O)[C@H](CO)NC(=O)[C@H](Cc1ccccc1)NC(=O)[C@H](CC(C)C)NC(=O)[C@@H](Cc1ccc(O)cc1)NC(=O)[C@H](CC(N)=O)NC(=O)[C@@H](N)[C@@H](C)O)C(=O)N[C@@H](C)C(=O)N[C@@H](CCCNC(=N)N)C(=O)N[C@@H](C)C(=O)N[C@@H](Cc1c[nH]c2ccccc12)C(N)=O [BIDEN-AP] (H-TN[dY]LFSPNGPIARAW-NH2; C-terminus assumed)
selectivity of binding among EphB class receptors [1]: bound only to EphB4, but not other B-class Eph receptors
endothelial cell migration vs untreated controls (RF24 endothelial cells): significantly inhibited cell migration
apoptotic cell death in CD31 endothelial vasculature (TUNEL) (A2780cp20-Luc tumors): induced apoptotic cell death
tumor cell proliferation (Ki67-positive cells) (A2780cp20-Luc tumors): significantly reduced tumor cell proliferation
tumor cell proliferation (Ki67) (MDA-HGSC-1 PDX tumor): significantly reduced
number of metastatic nodules in the lung (4T1 cells): significantly reduced the number of metastatic nodules in the lung

Source: US12448425B2, “Therapeutic peptides” (Board of Regents, The University of Texas System, priority 2019, dated 2025)
